Assay: general procedure: solution-phase peptide synthesis; liquid-phase carriers (Tag): B-STag, D-STag, X-STag; COMU, DIEPA
Details: whole synthesis, Analysis Condition 1, scale of the general procedure 1.0 mmol

| Substance | crude HPLC purity (run 1) | crude HPLC purity (run 2) | crude HPLC purity |
| --- | --- | --- | --- |
| H-Gln-Trp-Glu-Arg-Thr-NH2 | 71.0% | 82.0% | – |
| H-Ser-Met-Ile-Leu-Glu-OH | – | – | 62.3% |
| H-Asp-Ala-Asn-Cys-Glu-OH | 80.1% | 74.2% | – |

— patent US20240319146 (published 2024)
